Only a part is listed here, and it is no random draw. At the low end of the ranking the order means little.

By UniProt entry, the sequences of proteins in these tests, tags left out. Where a name states a change or a piece, a line headed by the entry shows the natural chain unless it says otherwise.
UniProt Q9Y603: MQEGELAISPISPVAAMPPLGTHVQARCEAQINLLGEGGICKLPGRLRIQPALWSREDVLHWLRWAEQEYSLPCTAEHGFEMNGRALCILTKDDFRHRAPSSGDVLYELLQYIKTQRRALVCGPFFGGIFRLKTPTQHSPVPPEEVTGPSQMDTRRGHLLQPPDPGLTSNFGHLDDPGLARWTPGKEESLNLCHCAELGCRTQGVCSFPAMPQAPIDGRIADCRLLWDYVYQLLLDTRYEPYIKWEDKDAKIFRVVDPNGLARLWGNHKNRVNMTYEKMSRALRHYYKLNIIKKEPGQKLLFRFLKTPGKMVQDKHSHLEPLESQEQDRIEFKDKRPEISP
UniProt P41212: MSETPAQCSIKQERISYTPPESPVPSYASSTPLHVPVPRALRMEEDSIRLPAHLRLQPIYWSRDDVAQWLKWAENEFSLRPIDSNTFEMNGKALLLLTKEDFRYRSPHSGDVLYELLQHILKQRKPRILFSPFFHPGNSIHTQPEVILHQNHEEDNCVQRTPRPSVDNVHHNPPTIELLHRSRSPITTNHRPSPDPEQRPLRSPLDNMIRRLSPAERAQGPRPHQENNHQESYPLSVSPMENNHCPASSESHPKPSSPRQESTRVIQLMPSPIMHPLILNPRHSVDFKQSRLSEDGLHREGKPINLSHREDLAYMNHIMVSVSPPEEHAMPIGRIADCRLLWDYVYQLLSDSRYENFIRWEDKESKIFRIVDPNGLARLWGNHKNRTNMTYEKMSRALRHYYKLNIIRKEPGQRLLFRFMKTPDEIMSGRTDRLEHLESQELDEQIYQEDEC

Common to all, as to assay: DAPPL (digital affinity profiling via proximity ligation, sequencing)
What all share (conditions): 10 mM Tris-HCl pH 7.5, 50 mM NaCl, 1 mM DTT, 4% glycerol, room temperature, 30 min; GST-TFs on glutathione beads, 16-mer random dsDNA library, 0.1% …; high values mean tight binding; double strand, one strand shown; scale: fold enrichment (6-mer frequency, TF over GST control)

For one experiment, the target named is T1, ELF3 (UniProt P78545).
T1 sequence: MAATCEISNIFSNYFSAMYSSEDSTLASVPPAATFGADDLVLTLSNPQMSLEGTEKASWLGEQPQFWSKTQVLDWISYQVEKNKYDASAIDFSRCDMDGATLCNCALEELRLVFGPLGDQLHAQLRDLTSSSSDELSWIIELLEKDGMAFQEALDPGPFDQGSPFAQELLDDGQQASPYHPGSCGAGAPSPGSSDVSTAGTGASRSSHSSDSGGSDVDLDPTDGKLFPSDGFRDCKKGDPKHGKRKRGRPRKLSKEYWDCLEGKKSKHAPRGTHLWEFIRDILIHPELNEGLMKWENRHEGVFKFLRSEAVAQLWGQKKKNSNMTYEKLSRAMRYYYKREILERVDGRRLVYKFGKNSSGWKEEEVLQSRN

Another experiment deals with ETV7 (UniProt Q9Y603).
The target of another experiment is ETV6 (UniProt P41212).

Turning to TCAGAA, the binding signal worked out at 0.884 with ELF3, 0.886 with ETV7 and 0.943 with ETV6.

As to CACAGT, the binding signal worked out at 0.852 in the experiment with ELF3, 0.786 in the experiment with ETV7 and 0.736 with ETV6.

On to AGGTCA, for which the binding signal with ELF3 was found to be 0.667; with ETV7 it was 0.78; with ETV6 it was 0.689.

As to GACCAT, the figures for the binding signal with ELF3, with ETV7 and with ETV6 were 0.912, 0.841 and 0.821, respectively.

For the sequence GACATA, the figures for the binding signal with ELF3, with ETV7 and in the experiment with ETV6 were 0.97, 0.878 and 0.906, respectively.

For GGCGGC, the binding signal with ELF3 turned out to be 0.565; with ETV7, 0.654; in the experiment with ETV6, 0.623.

On to GATGAG, for which the binding signal with ELF3 is 0.819; in the experiment with ETV7, 0.884; with ETV6, 0.845.

Turning to GAGCTG, the binding signal worked out at 0.736 with ELF3, 0.72 with ETV7 and 0.695 with ETV6.

AATCGG: the binding signal in the experiment with ELF3 worked out at 0.514; with ETV7 it was 0.57; in the experiment with ETV6 it was 0.607.

As for AGACCG, the binding signal with ELF3 is 0.437; with ETV7, 0.466; with ETV6, 0.483.

Consider CGGCCG, for which the binding signal in the experiment with ELF3 is 0.936; with ETV7, 0.76; in the experiment with ETV6, 0.807.

For AGGTGG, the figures for the binding signal with ELF3, with ETV7 and in the experiment with ETV6 were 0.627, 0.687 and 0.604, respectively.

In the case of TGAGCG, the binding signal with ELF3 was 0.666; with ETV7, 0.695; with ETV6, 0.635.

On to GAGGGA, for which the figures for the binding signal with ELF3, with ETV7 and in the experiment with ETV6 were 0.479, 0.513 and 0.513, respectively.

As to GGTGAC, the binding signal was 0.836 in the experiment with ELF3, 0.731 in the experiment with ETV7 and 0.861 with ETV6.

Take AAGAGG: the binding signal in the experiment with ELF3 came out at 0.979; with ETV7, 0.891; with ETV6, 0.895.

Regarding CGGGTA, the binding signal in the experiment with ELF3 worked out at 0.765; with ETV7, 0.877; in the experiment with ETV6, 0.824.

As to CAGGCA, the binding signal with ELF3 is 0.76; in the experiment with ETV7 it was 0.825; in the experiment with ETV6 it was 0.759.

Regarding GAGTGG, the results for the binding signal in the experiment with ELF3, with ETV7 and in the experiment with ETV6 were 0.626, 0.59 and 0.605, respectively.

As to AGAGGA, the binding signal in the experiment with ELF3 stood at 0.779; with ETV7 it was 0.672; with ETV6, 0.701.

For AGGGTA, the binding signal with ELF3 came to 0.899; in the experiment with ETV7 it was 0.98; with ETV6, 0.9.

Consider CAGCCA, for which the binding signal with ELF3 was found to be 0.874; with ETV7, 0.807; with ETV6, 0.777.

As to TCGTGT, the binding signal in the experiment with ELF3 was found to be 0.746; with ETV7 it was 0.886; in the experiment with ETV6, 0.781.

For AAGTCG, the binding signal with ELF3 stood at 0.471; in the experiment with ETV7, 0.542; in the experiment with ETV6, 0.463.

For GGGTGG, the binding signal in the experiment with ELF3 is 0.776; with ETV7 it was 0.803; in the experiment with ETV6, 0.812.

Regarding AGAGCG, the binding signal in the experiment with ELF3 turned out to be 0.467; in the experiment with ETV7, 0.457; in the experiment with ETV6, 0.451.

For ACAGTA, the results for the binding signal in the experiment with ELF3, with ETV7 and with ETV6 were 0.971, 0.895 and 0.931, respectively.

On to TCGTGA, for which the binding signal with ELF3 was determined as 0.394; with ETV7, 0.338; with ETV6, 0.309.

On to GTCGAA, for which the binding signal with ELF3 amounted to 0.58; with ETV7, 0.714; in the experiment with ETV6, 0.644.

Turning to GCGGGA, the binding signal amounted to 0.338 with ELF3, 0.443 in the experiment with ETV7 and 0.406 with ETV6.
